# In article PMC10163288:
# The list shows a part of the results.
# B1: il10ra_site1_normal_mot_HHH_b1_05326_000000242_0001_1_20_H_._HHH_b1_03012_af2_0001_0000300020_0000001_0 (protein)
# chain: SSSSSEELEEALKLSREAFRLLLRGNEEEAEKVLREAEELLEKAGDPRLLRVVRDLLQVISSSSS
# B2: il10ra_site1_sap_24_mot_HHH_b1_07256_000000044_0001_1_17_H_._HHH_b2_00272_0001_0000100004_0000003_0_0001_af2pred_0001 (protein)
# chain: SSSSSEFREVVELLRKAAEALTDGNPEEAEELLEKAEEIARQINDEEALLLVEFLQKRVGSSSSS
# B3: il10ra_site1_normal_mot_HHH_b1_05326_000000242_0001_1_20_H_._HHH_b2_04330_af2_0001_0000100008_0000001_0 (protein)
# chain: SSSSSDNEEALRLSIHAFRLALRGNPEEARELLEEALELAERANNEKLFRQIEELLETLHSSSSS
# B4: il10ra_site1_normal_mot_HHH_b1_06256_000000091_0001_42_58_H_._HHH_b1_07210_0001_0000100001_0000002_0 (protein)
# chain: SSSSSAEEVAELLQRAVRLIFNGNPEEAQKLLEEAERIAEENNDEELERYIEAVERFLESHSSSS
# B5: il10ra_site1_normal_mot_HHH_b1_00666_000000226_0001_43_56_H_._HHH_b2_03893_0001_0000400033_0000002_0 (protein)
# chain: SSSSSSDIEELLREAEELIEEGDPEEALEVLTEAIRLALERGDEELLQELWELVLRLASSSSSSS
# B6: il10ra_site1_normal_mot_HHH_b1_05357_000000034_0001_23_39_H_._HHH_b2_02051_0001_0000200015_0000001_0_af2pred_0001 (protein)
# chain: SSSSDREEEIEEYEEELKELAERGDREKLAQVLIRAFSLATHLKDPELLERLKELARELKNSSSS
# B7: il10ra_site1_sap_21_mot_HHH_b1_05757_000000171_0001_42_57_H_._HHH_b1_06570_0001_0000600045_0000001_0_0001 (protein)
# chain: SSSSSDDRVEESVKRTLRAAKQLEDEEYARLALRFALALAEWANDEELQEEVRELLEEISSSSSS
# B8: il10ra_site1_sap_19_mot_HHH_b1_03277_000000286_0001_44_57_H_._HHH_b1_06592_0001_0000100008_0000001_0_0001 (protein)
# chain: SSSSDQKKELVEALERMIEQAYEWGDEELVKMLLEAAELLAEDSNDPRLREIVERLEELLSSSSS
# B9: il10ra_site1_normal_mot_HHH_b2_02463_af2_000000222_0001_1_19_H_._HHH_b1_05522_af2_0001_0000300019_0000001_0 (protein)
# chain: SSSSDEVLELIIEIARLLIQGDLERAEELIEEVEELVKELGDPRLEEAVEILKEALEANRSSSSS
# B10: il10ra_site1_sap_13_mot_HHH_b2_00943_af2_000000149_0001_1_17_H_._HHH_b1_02941_af2_0001_0000200003_0000001_0_0001 (protein)
# chain: SSSSDVSREAYELSRRAAELHSEGNPEEARELLEEAEELLREAGDRVILHNVEYVLELLNSSSSS
# B11: il10ra_site1_sap_21_mot_HHH_b1_04693_000000238_0001_19_36_H_._HHH_b1_05537_af2_0001_0001000030_0000002_0_0001 (protein)
# chain: SSSSDEEIEEEVRELLEEAKEIEDEHEFAQVLARAMRLAYELGNPELVEEVIRVAAKWLNRSSSS
# B12: il10ra_site1_normal_mot_HHH_b2_04679_000000194_0001_21_38_H_._HHH_b2_08086_0001_0000100001_0000001_0 (protein)
# chain: SSSSDRQEAYELIRRAIELLSEGDPRAEEVLEELRELVEQIGSPLLEFMVRLLEQQLERLKSSSS
# B13: il10ra_site1_sap_5_mot_HHH_b1_00169_000000276_0001_1_18_H_._HHH_b1_06511_0001_0000200023_0000001_0_0001 (protein)
# chain: SSSSSDEHQELLELLHELIQLMLEGDEEEAQKLAEEILKLAEELNDEKVFEMAEDLLKAISSSSS
# B14: il10ra_site1_normal_mot_HHH_b2_07913_000000228_0001_1_19_H_._HHH_b2_01981_af2_0001_0000700029_0000001_0_af2pred_dldesign_0_af2pred (protein)
# chain: SSSSSSEHEKSQRVIDLIRKAFEVDKEEAKKLLDEALKLAEELKSPTLIHAVEAARRALESSSSS
# B15: il10ra_site1_normal_mot_HHH_b1_04771_000000013_0001_40_56_H_._HHH_b1_02827_0001_0000300017_0000001_0 (protein)
# chain: SSSSSELLQQALELSLEAFRLALRGNPEEAREVLEEAEELVREAGDPQLLEVIEELLRALSSSSS
# B16: il10ra_site1_normal_mot_HHH_b1_01821_000000158_0001_23_39_H_._HHH_b2_02229_0001_0000100005_0000001_0 (protein)
# chain: SSSSSSDEEEVEELLEEAKEIEDREELVEVLLEALRIALQAQDPELLRLVWEVFKKLVSSSSSSS
# B17: il10ra_site1_sap_17_mot_HHH_b1_07286_af2_000000054_0001_1_19_H_._HHH_b2_05896_0001_0000100012_0000001_0_0001 (protein)
# chain: SSSSDERYLELALRFAKRLLEAGDPEAARFMLEAARELAERDGDEELLREVEELREEVERSSSSS
# B18: il10ra_site1_normal_mot_HHH_b1_05056_000000217_0001_1_20_H_._HHH_b1_07876_0001_0000200010_0000001_0 (protein)
# chain: SSSSSSDEEEEVEELLEEAKHIEDPRERTEVLLEALRVALQLGDPKLLQLVWRVVKRLSSSSSSS
# B19: il10ra_site1_sap_26_mot_HHH_b2_00984_000000042_0001_1_20_H_._HHH_b2_00952_0001_0000300030_0000002_0_0001 (protein)
# chain: SSSSSSEEELREEVEELLEEAKQITDRRERFKVLLRALRLAIQGNDPELLQRVWKVLKELSSSSS
# B20: il10ra_site1_sap_21_mot_HHH_b1_07100_000000193_0001_1_18_H_._678a1b28e3afbd0e6d42a78f97d9d1d3_0001_0001_0000400019_0000001_0_0001_af2pred_0001 (protein)
# chain: SRIALLAILYALERGNPEAAERTARHLLRLLEREGDPRAELLEEVEELVKRDEEKAKELLEEILK
# B21: il10ra_site1_sap_20_mot_HHH_b2_07873_af2_000000172_0001_1_19_H_._HHH_b2_08048_af2_0001_0000100001_0000001_0_0001 (protein)
# chain: SSSSSNEAVELLREVVELMAEGNPEEAEKLIEEAEKVAEEEGSDVIKWQLEYIKKHIENSSSSSS
# B22: il10ra_site1_normal_mot_HHH_b2_05813_000000266_0001_1_19_H_._HHH_b1_04335_0001_0000200017_0000002_0_af2pred_0001 (protein)
# chain: SSSSSEEEQRFAQEVTVRVARLLQRGNPEEARELLEEAIEEAKELGNRKAKKHLEHLLKLLSSSS
# B23: il10ra_site1_sap_8_mot_HHH_b2_00943_af2_000000149_0001_1_17_H_._HHH_b2_01442_af2_0001_0000100007_0000001_0_0001 (protein)
# chain: SSSSFISEFSVKAVERAVKELLKRGDRERAEFLIRRALEILREMGDEEAVEELEELLEEVTSSSS
# B24: il10ra_site1_normal_mot_HEEHE_3255_000000102_0001_40_55_H_._HHH_b1_05364_af2_0001_0001400095_0000001_0 (protein)
# chain: SSSSDEELRKFVEELVEEFNLSEDVRNLLEIQVESLLELGFSEEEIKKRLEEAAKLIARQQSSSS
# B25: il10ra_site1_normal_mot_HHH_b2_06786_000000018_0001_41_57_H_._HHH_b2_03897_af2_0001_0000400013_0000001_0 (protein)
# chain: SSSSSEEERLKELEEELREALERGDTELAAELLIEALRLAIRLSDPEFLHELWKLFKRNISSSSS
# B26: il10ra_site1_normal_mot_HHH_b2_06979_000000158_0001_42_57_H_._HHH_b1_05868_0001_0000200019_0000001_0 (protein)
# chain: SSSSTEEAQLVHELAREAIELFRSGNPEEAQEVLEELLRLLEELGNRLLVINVEFLLRDLRSSSS
# B27: il10ra_site1_sap_21_mot_HHH_b2_00230_000000227_0001_1_19_H_._HHH_b2_02666_0001_0000200015_0000002_0_0001 (protein)
# chain: SSSSNEEYYIELLVEAAEVLAKNVDDPEEREELERLAEELEREGDPRLFHELSHLVSKIHLSSSS
# B28: il10ra_site1_sap_30_mot_9c3e5e2d2b9ffb70dc788f52fbfab6d5_0001_1_000000198_0001_1_14_H_._HHH_b1_03906_af2_0001_0000700020_0000001_0_0001_af2pred_0001 (protein)
# chain: SSSSSTEEQVERLVRVALELAKLLEDPRFVELAIRSARLVAEENNDEEAERLVEEFAEELSSSSS
# B29: il10ra_site1_normal_mot_HHH_b1_00999_000000080_0001_41_55_H_._HHH_b2_04674_0001_0000200014_0000002_0 (protein)
# chain: SSSSDEEERQLKELLEELKELVEEGDEERFLRVLQELIRLAFRNSDAEVLRILWELARELGSSSS
# B30: il10ra_site1_normal_mot_ems_3hM_2400_000000184_0001_1_19_H_._HHH_b2_03037_0001_0000200010_0000001_0 (protein)
# chain: SSSSDEEEEEEVREILEEAKHIEDEHELAQVLFEAFRRAWEIRDPEAVQLVIRVAARLNDSSSSS
# B31: il10ra_site1_normal_mot_HHH_b2_06786_000000018_0001_41_57_H_._HHH_b1_04520_0001_0000400026_0000002_0 (protein)
# chain: SSSSDAQRIAAKAARLAFRLNDPELLQEVWRLFKEIIETDDPRLEEELEELLEEIERLLKSSSSS
# B32: il10ra_site1_normal_mot_HHH_b2_00984_000000042_0001_1_20_H_._HHH_b1_07795_af2_0001_0000100004_0000001_1 (protein)
# chain: SSSSDLEEEVEELLRELEELLKRNDREEFIEVAQEASRLALEAGNAELLQEIWELIRKLRSSSSS
# B33: il10ra_site1_sap_14_mot_HHH_b2_08265_af2_000000206_0001_22_38_H_._HHH_b1_01778_0001_0000100006_0000001_0_0001 (protein)
# chain: SSSSSETQRIFELIKEAMELHSDGNPEEAEELVEEALELAEQNNNRLFAWQARFVLKEVRSSSSS
# B34: il10ra_site1_normal_mot_HHH_b1_07835_af2_000000063_0001_1_16_H_._HHH_b2_02304_0001_0000100010_0000001_1_af2pred_0001 (protein)
# chain: SSSSDEEIRERIEELLEEAKHIEDEHEVAELLAEASRLAYELRDPELARLVDKVAIELNLSSSSS
# B35: il10ra_site1_normal_mot_65b8060e20531850bca9f2e11f97d954_0001_af2_000000137_0001_17_31_H_._HHH_b1_08628_0001_0000100002_0000001_0 (protein)
# chain: SSSDEEQRASELFVRASRLIEEGDDEEARKLLEELRELVEEIGDPKLRISVRFLEALLRSASSSS
# B36: il10ra_site1_sap_21_mot_HHH_b2_03183_af2_000000055_0001_40_56_H_._HHH_b1_01074_0001_0000100001_0000003_1_0001 (protein)
# chain: SSSSDEETQELFELSREAVELDLEGNPEEARRVLEEAEELAKELGNRLFLWQLEWLLEVVNSSSS
# B37: il10ra_site1_sap_24_mot_HHH_b2_05323_000000159_0001_1_18_H_._HHH_b2_02221_af2_0001_0000400020_0000001_0_0001 (protein)
# chain: SSSSSSDEILKLAVEALRLAFQKNDPEALRAVWKLVRRYHEEGDERYREELEELLEELSSSSSSS
# Molecular target: il10ra, Q13651
# Assay: yeast display titration
row,Binder,apparent Kd
1,B1,inactive: no binding seen
2,B2,inactive: no binding seen
3,B3,inactive: no binding seen
4,B4,inactive: no binding seen
5,B5,inactive: no binding seen
6,B6,inactive: no binding seen
7,B7,inactive: no binding seen
8,B8,inactive: no binding seen
9,B9,inactive: no binding seen
10,B10,inactive: no binding seen
11,B11,inactive: no binding seen
12,B12,inactive: no binding seen
13,B13,inactive: no binding seen
14,B14,inactive: no binding seen
15,B15,inactive: no binding seen
16,B16,inactive: no binding seen
17,B17,inactive: no binding seen
18,B18,inactive: no binding seen
19,B19,inactive: no binding seen

# Two successive entries already listed:
row,Binder,apparent Kd
13,B13,inactive: no binding seen
14,B14,inactive: no binding seen

# The listing continues:

row,Binder,apparent Kd
1,B20,inactive: no binding seen
2,B21,inactive: no binding seen
3,B22,inactive: no binding seen
4,B23,inactive: no binding seen
5,B24,inactive: no binding seen
6,B25,inactive: no binding seen
7,B26,inactive: no binding seen
8,B27,inactive: no binding seen
9,B28,inactive: no binding seen
10,B29,inactive: > 0.921 µM
11,B30,inactive: no binding seen
12,B31,inactive: no binding seen
13,B32,inactive: no binding seen
14,B33,inactive: no binding seen
15,B34,inactive: no binding seen
16,B35,inactive: no binding seen
17,B36,inactive: no binding seen
18,B37,inactive: no binding seen
